Laboratory results: PubChem BioAssay AID1259308 (NCATS, 2017)
Assay: 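Knock-downs that increase output of a recombinant reporter protein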 (primary screen). System: human HEK293 embryonic kidney cells stably expressing firefly luciferase (HEK-CMV-Luc2-Hygro). Knock-down reagent: single siRNA against human genes, 0.8 pmol siRNA per well. Duration: 72 h. Detection: 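Luciferase light (ONE-Glo) measured on one replicate plate set and viability (CellTiter-Glo) on the other, scaled to a negative control siRNA, with robust z-scores and luciferase per cell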. Scale: total luciferase, z-score and total luciferase, % of control: higher = more reporter protein produced; luciferase per cell, z-score: higher = more reporter output per viable cell; viable cells, % of control: higher = more viable cells. Call rule: 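Active when the median/MAD z-score for overall luciferase is greater than 3; a gene was taken forward for validation with new siRNAs if at least two of its three siRNAs passed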. Calls: active = raised luciferase; inactive = no rise.
Shown is an unselected part of about 59,000 reagents. In the full data, about 1,510 (2.6%) got an active call. 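Calls use total luciferase alone and ignore viability, so some active siRNAs may act by altering cell number.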 Entries without a mark were called inactive. Reagents against one gene are numbered here.

gene symbol | reagent no. | total luciferase, z-score | total luciferase, % of control | luciferase per cell, z-score | viable cells, % of control
TUBB2B | 1 | -1.67 | 48.7 | -1.77 | 86.7
TUBB2B | 2 | 0.0221 | 82.3 | -0.768 | 113
TUBB2B | 3 | -1.23 | 57.3 | -1.55 | 96.3
JMY | 1 | -0.501 | 71.9 | 0.732 | 66.3
JMY | 2 | -0.107 | 79.8 | -0.668 | 106
JMY | 3 | 2.83 | 138 | 1.82 | 95.7
SERPINA9 | 1 | 1.95 | 121 | 1.68 | 86.6
SERPINA9 | 2 | 0.122 | 84.3 | -0.105 | 96.8
SERPINA9 | 3 | 1.48 | 111 | 2.9 | 58
LGSN | 1 | 0.384 | 89.5 | -0.0249 | 101
LGSN | 2 | -0.511 | 71.7 | -1.25 | 111
LGSN | 3 | -0.925 | 63.5 | -1.02 | 92.7
FBXW7 | 1 | -2.31 | 35.9 | -2.2 | 71.6
FBXW7 | 2 | 0.338 | 88.6 | 0.238 | 93
FBXW7 | 3 | -0.159 | 78.7 | -0.613 | 103
DMRTA2 | 1 | 0.458 | 91 | -0.0677 | 104
DMRTA2 | 2 | 0.0495 | 82.9 | -0.0798 | 94.6
DMRTA2 | 3 | 1.18 | 105 | 0.431 | 105
IPO9 | 1 | 0.578 | 93.4 | 0.0372 | 103
IPO9 | 2 | 0.711 | 96 | 0.259 | 100
IPO9 | 3 | -0.448 | 73 | -1.04 | 107
CCNC | 1 | -2.66 | 29 | -3.17 | 74.7
CCNC | 2 | -1.3 | 56.1 | -1.11 | 83.9
CCNC | 3 | -1.13 | 59.4 | -0.317 | 72.1
DEFB104A | 1 | 2.15 | 125 | 1.49 | 94
DEFB104A | 2 | -0.195 | 78 | -0.787 | 107
DEFB104A | 3 | 0.375 | 89.3 | 0.0514 | 98.5

Continued (8 carried over from the part before).
gene symbol | reagent no. | total luciferase, z-score | total luciferase, % of control | luciferase per cell, z-score | viable cells, % of control
IPO9 | 2 | 0.711 | 96 | 0.259 | 100
IPO9 | 3 | -0.448 | 73 | -1.04 | 107
CCNC | 1 | -2.66 | 29 | -3.17 | 74.7
CCNC | 2 | -1.3 | 56.1 | -1.11 | 83.9
CCNC | 3 | -1.13 | 59.4 | -0.317 | 72.1
DEFB104A | 1 | 2.15 | 125 | 1.49 | 94
DEFB104A | 2 | -0.195 | 78 | -0.787 | 107
DEFB104A | 3 | 0.375 | 89.3 | 0.0514 | 98.5
SLC30A6 | 1 | 1.95 | 121 | 1.4 | 93.2
SLC30A6 | 2 | 0.454 | 90.9 | -0.275 | 109
SLC30A6 | 3 | -0.335 | 75.2 | -0.404 | 93.5
SPATA25 | 1 | 1.62 | 114 | 0.963 | 99
SPATA25 | 2 | 8.11 (active) | 243 | 4.14 | 91.4
SPATA25 | 3 | 2.05 | 123 | 2.67 | 67.9
TMEM109 | 1 | 0.411 | 90.1 | 0.702 | 83.6
TMEM109 | 2 | 0.157 | 85 | -0.288 | 102
TMEM109 | 3 | -0.259 | 76.7 | 1.12 | 63.9
DMAP1 | 1 | 1.53 | 112 | 1.5 | 84.5
DMAP1 | 2 | 1.82 | 118 | 2.32 | 71.7
DMAP1 | 3 | 2.29 | 128 | 1.46 | 97.1
OMP | 1 | 0.0851 | 83.6 | -0.00811 | 93.6
OMP | 2 | 1.53 | 112 | 1.52 | 84.1
OMP | 3 | -1.1 | 60 | -1.2 | 92.1
LSP1P3 | 1 | -0.335 | 75.2 | -0.0276 | 84.7
LSP1P3 | 2 | 0.424 | 90.3 | 0.714 | 83.6
LSP1P3 | 3 | -0.247 | 77 | 0.327 | 78.9
CARS1 | 1 | -1.02 | 61.5 | -1.71 | 108
CARS1 | 2 | -0.397 | 74 | -0.33 | 90.2
CARS1 | 3 | 0.823 | 98.3 | 0.382 | 99.3
IGSF3 | 1 | 0.266 | 87.2 | 0.116 | 94.5
IGSF3 | 2 | -1.22 | 57.7 | 0.492 | 56.6
IGSF3 | 3 | -0.127 | 79.4 | 1.47 | 60.2
NPS | 1 | -0.388 | 74.2 | 0.107 | 80.6
NPS | 2 | -0.121 | 79.5 | -0.399 | 98.6
NPS | 3 | -0.822 | 65.5 | -0.99 | 95
OR8U3 | 1 | 1.78 | 117 | 1.78 | 82.1
OR8U3 | 2 | -1.72 | 47.7 | -0.0616 | 54.2
OR8U3 | 3 | -0.809 | 65.8 | -0.513 | 84.1
